Taken from: PubChem BioAssay AID1053208 (Peter MacCallum Cancer Centre, 2014)

Test: 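Synthetic lethal interactions between gene loss and doxorubicin in osteosarcoma cells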 (primary screen)
System: mouse osteosarcoma cells, early-passage culture from an engineered mouse model of fibroblastic bone tumour
Reagent: siRNA pool against mouse genes, 40 nM
Timing: about 120 h (48 h before drug, then 72 h with drug)
Treatment: doxorubicin 100 nM for 72 h, roughly 30-40% inhibitory dose
Read-out: 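Luminescent ATP signal taken as viability with or without 100 nM doxorubicin for 72 h; mean of two wells set against non-targeting siRNA and turned into robust z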
Scale: viability z-score with doxorubicin and doxorubicin viability vs non-targeting: higher = more viable cells under doxorubicin; viability z-score without drug: higher = more viable cells with knock-down alone; z-score of drug to no-drug ratio: higher = less drug sensitisation by knock-down
Active means: 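Called active if knock-down leaves viability unchanged without drug (z within -2 to 2) but lowers it with doxorubicin (z at or under -2)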
Shown is an unselected part of about 17,000 reagents. 788 of all reagents (4.7%) count as active. 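Calls rest on z-score classes alone; an extra cut-off of viability at most 70% of control was not applied to them.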 A reagent listed more than once was tested more than once; the source does not tell the runs apart.

gene knocked down | combined z-score class | viability z-score with doxorubicin | viability z-score without drug | z-score of drug to no-drug ratio | doxorubicin viability vs non-targeting | call
Cbx6 | no change with or without drug | -1.91 | -0.51 | -1.57 | 0.77 | inactive
Cbx6 | high cell count without drug only | 1.57 | 2.02 | 0.34 | 1.08 | inactive
Esm1 | no change with or without drug | -1.24 | -0.84 | -0.67 | 0.83 | inactive
Gemin8 | no change with or without drug | 0.9 | 0.34 | 0.79 | 1.02 | inactive
Cyth3 | no change with or without drug | 0.34 | -0.84 | 1.12 | 0.97 | inactive
Or5g26 | no change with or without drug | -1.12 | -1.35 | -0.11 | 0.84 | inactive
Arcn1 | low cell count with and without drug | -8.09 | -6.07 | -6.86 | 0.22 | inactive
Acin1 | no change with or without drug | -1.8 | -1.01 | -1.12 | 0.78 | inactive
Vmn1r48 | no change with or without drug | -0.22 | 0.17 | -0.22 | 0.92 | inactive
Ephb3 | no change with or without drug | -0.67 | -1.52 | 0.45 | 0.88 | inactive
Fyn | no change with or without drug | 0.34 | -0.17 | 0.56 | 0.97 | inactive
Dtna | high cell count with doxorubicin only | 2.02 | -0.17 | 2.36 | 1.12 | inactive
Cd74 | no change with or without drug | 1.57 | 0.84 | 1.12 | 1.08 | inactive
Siglech | no change with or without drug | -0.11 | -0.84 | 0.56 | 0.93 | inactive
Krtap4-7 | no change with or without drug | 1.8 | 1.35 | 1.01 | 1.1 | inactive
Pus7 | no change with or without drug | 0 | -0.51 | 0.45 | 0.94 | inactive
Itgav | low cell count without drug only | -1.8 | -2.87 | 0.22 | 0.78 | inactive
St6galnac5 | no change with or without drug | 0 | -0.67 | 0.56 | 0.94 | inactive
Hnrnpa3 | no change with or without drug | 0 | -0.51 | 0.45 | 0.94 | inactive
Fank1 | no change with or without drug | -0.34 | 0.17 | -0.34 | 0.91 | inactive
Lpin2 | no change with or without drug | -1.8 | -1.52 | -0.79 | 0.78 | inactive
Fam72a | no change with or without drug | -0.45 | 0.67 | -0.79 | 0.9 | inactive
Adgrg1 | no change with or without drug | -1.35 | -0.34 | -1.12 | 0.82 | inactive

A portion from the list above, for reference:
gene knocked down | combined z-score class | viability z-score with doxorubicin | viability z-score without drug | z-score of drug to no-drug ratio | doxorubicin viability vs non-targeting | call
Pus7 | no change with or without drug | 0 | -0.51 | 0.45 | 0.94 | inactive
Itgav | low cell count without drug only | -1.8 | -2.87 | 0.22 | 0.78 | inactive
St6galnac5 | no change with or without drug | 0 | -0.67 | 0.56 | 0.94 | inactive
Hnrnpa3 | no change with or without drug | 0 | -0.51 | 0.45 | 0.94 | inactive
Fank1 | no change with or without drug | -0.34 | 0.17 | -0.34 | 0.91 | inactive
Lpin2 | no change with or without drug | -1.8 | -1.52 | -0.79 | 0.78 | inactive
Fam72a | no change with or without drug | -0.45 | 0.67 | -0.79 | 0.9 | inactive

Next results:
gene knocked down | combined z-score class | viability z-score with doxorubicin | viability z-score without drug | z-score of drug to no-drug ratio | doxorubicin viability vs non-targeting | call
Cyld | no change with or without drug | -0.9 | -0.51 | -0.56 | 0.86 | inactive
Hcn1 | no change with or without drug | -0.79 | 0.34 | -0.9 | 0.87 | inactive
Glt28d2 | no change with or without drug | 1.35 | 1.01 | 0.79 | 1.06 | inactive
Otulinl | no change with or without drug | 0.11 | -0.34 | 0.45 | 0.95 | inactive
Foxg1 | high cell count without drug only | 0.67 | 2.36 | -0.67 | 1 | inactive
Arhgap31 | no change with or without drug | -1.35 | -0.17 | -1.24 | 0.82 | inactive
Scn7a | high cell count with doxorubicin only | 2.02 | 0.34 | 1.91 | 1.12 | inactive
Evpl | no change with or without drug | 0.11 | 1.52 | -0.79 | 0.95 | inactive
Or52r1b | no change with or without drug | -0.9 | -1.85 | 0.45 | 0.86 | inactive
Catsperg2 | no change with or without drug | 1.35 | 0.84 | 0.9 | 1.06 | inactive
Atp5if1 | no change with or without drug | -0.22 | 0.51 | -0.45 | 0.92 | inactive
Pabpc1 | low cell count with and without drug | -5.17 | -3.88 | -3.48 | 0.48 | inactive
Coq10b | no change with or without drug | 0.67 | -0.17 | 0.9 | 1 | inactive
Olig1 | no change with or without drug | -1.35 | -0.51 | -1.01 | 0.82 | inactive
Pigo | no change with or without drug | 1.46 | 1.18 | 0.79 | 1.07 | inactive
Rgl1 | no change with or without drug | -0.9 | -0.17 | -0.79 | 0.86 | inactive
Map3k19 | no change with or without drug | 0.45 | -1.18 | 1.46 | 0.98 | inactive
Nfasc | no change with or without drug | 1.01 | 0.84 | 0.56 | 1.03 | inactive
Nol6 | no change with or without drug | -0.11 | -0.84 | 0.56 | 0.93 | inactive
Rex1bd | no change with or without drug | 1.12 | -0.84 | 2.02 | 1.04 | inactive
Bloc1s3 | high cell count without drug only | 0.9 | 2.53 | -0.56 | 1.02 | inactive
Arap3 | no change with or without drug | -0.9 | 0.67 | -1.24 | 0.86 | inactive
Hrk | high cell count without drug only | 0.67 | 2.36 | -0.67 | 1 | inactive
Ube2c | no change with or without drug | -1.57 | 0.51 | -1.8 | 0.8 | inactive
Or2ag13 | no change with or without drug | -0.22 | -0.17 | 0 | 0.92 | inactive
Mslnl | no change with or without drug | 1.01 | 1.35 | 0.22 | 1.03 | inactive
Mrpl21 | no change with or without drug | 0.22 | -1.85 | 1.8 | 0.96 | inactive
Dnm1l | no change with or without drug | 0.11 | -0.17 | 0.34 | 0.95 | inactive
Ccdc169 | no change with or without drug | -0.22 | -0.17 | 0 | 0.92 | inactive
Fbxw13 | no change with or without drug | -1.12 | 0.84 | -1.57 | 0.84 | inactive
Tas2r109 | no change with or without drug | 1.91 | 1.18 | 1.24 | 1.11 | inactive
Ak8 | no change with or without drug | 1.35 | 0 | 1.57 | 1.06 | inactive
Prkcq | no change with or without drug | 1.12 | 1.52 | 0.22 | 1.04 | inactive
Vmn1r37 | no change with or without drug | -0.79 | 0.84 | -1.24 | 0.87 | inactive
Lrrc31 | no change with or without drug | -1.46 | 0.51 | -1.69 | 0.81 | inactive
Pald1 | no change with or without drug | 0.22 | -0.17 | 0.45 | 0.96 | inactive
Rnf5 | no change with or without drug | 0.22 | 0.17 | 0.22 | 0.96 | inactive
Hapln3 | no change with or without drug | 0.67 | 0.67 | 0.34 | 1 | inactive
Golim4 | no change with or without drug | -0.45 | -0.17 | -0.22 | 0.9 | inactive
4930412M03Rik | low cell count with doxorubicin only | -2.7 | 0 | -2.7 | 0.7 | active
